# Data published in publication PMC12431657, “Discovery and mechanistic insights of dibenzoylmethane as a broad spectrum inhibitor of coronavirus” (PLOS Pathogens, 2025).
# Structures can show the parent of a compound that is named as a salt. The campaign covered roughly 3,300 compounds. About 95 (3%) showed an effect of 50% or more. The list shows a part of the results.
# System: HCoV-229E
# Design: species or system Huh-7; HTS, protection from HCoV-229E induced cell death, luminescent cell viability (CellCounting-Lite 2.0), inhibition rate
# Details: 24 h, 10 µM; inhibitor
row,SMILES,229E Inhibition rate
1,"COc1cc(C=O)cc(OC)c1OC [3,4,5-Trimethoxybenzaldehyde]",11.1%
2,CC(C)(O)[C@H]1O[C@H]2CC[C@@]3(C)[C@@](O)(CC[C@H]4Cc5c([nH]c6ccccc56)[C@@]43C)C2=CC1=O [Paxilline],0%
3,CCOC1c2c(ccc3c2OCO3)-c2ccc3cc4c(cc3c2N1C)OCO4 (stereo not shown) [Ethoxysanguinarine],2.8%
4,C/C(=C\c1csc(C)n1)[C@@H]1C[C@@H]2O[C@@H]2CCC[C@H](C)[C@H](O)[C@@H](C)C(=O)C(C)(C)[C@@H](O)CC(=O)O1 [Epothilone A],33.8%
5,CNC[C@H](N)C(=O)O [β-N-methylamino-L-alanine (hydrochloride)],11.1%
6,O=C1C=CC[C@@H]2[C@H]3CCC[N+]4([O-])CCC[C@@H](CN12)[C@@H]34 (stereo partly shown) [Oxysophocarpine],11.6%
7,CC1(C)[C@H]2O[C@H]2[C@H]2[C@](C)(O)[C@@H]3CC[C@@H]4[C@@H](O)[C@@]3(C[C@@H](O)[C@@]21O)C[C@@]4(C)O [Rhodojaponin III],46.8%
8,COC[C@@]12CC[C@H](OC)[C@@]34[C@@H]5C[C@@]6(O)[C@H](OC(=O)c7ccccc7)[C@@H]5[C@@](OC(C)=O)([C@@H]([C@H](OC)[C@H]13)[C@H]4N(C)C2)[C@@H](O)[C@@H]6OC [Hypaconitine],42.3%
9,CC(C)=CCC[C@@](C)(O)[C@H]1CC[C@]2(C)[C@@H]1[C@H](O)C[C@@H]1[C@@]3(C)CC[C@H](O[C@@H]4O[C@H](CO)[C@@H](O)[C@H](O)[C@H]4O)C(C)(C)[C@@H]3CC[C@]12C [20(R)-Ginsenoside Rh2],3.7%
10,CC(=O)O[C@H]1C[C@]2(O)[C@@H]3CC[C@@H]4C[C@@H](O)CC[C@]4(C)[C@H]3CC[C@]2(C)[C@H]1c1ccc(=O)oc1 [Bufotalin],18.6%
11,C[C@]12CC[C@H](O)C[C@@]1(O)CC[C@@H]1[C@@H]2CC[C@]2(C)[C@@H](c3ccc(=O)oc3)CC[C@]12O [Telocinobufagin],16.1
12,N#CCc1ccc(O)cc1 [4-Hydroxybenzyl cyanide],7.1
13,CC(C)=CCC[C@](C)(O)[C@H]1CC[C@]2(C)[C@@H]1[C@H](O)C[C@@H]1[C@@]3(C)CC[C@H](O[C@@H]4O[C@H](CO)[C@@H](O)[C@H](O)[C@H]4O)C(C)(C)[C@@H]3CC[C@]12C [Ginsenoside Rh2],4.7%
14,CCN1C[C@]2(C)CC[C@H](O)[C@]34C1[C@@H](C[C@H]23)[C@@]1(O)C[C@H](OC)[C@H]2C[C@@H]4[C@@H]1[C@H]2O [Karacoline],19.2%
15,CC1=C2C[C@H]3[C@@H](CC(=O)[C@H]4C[C@@H](O)CC[C@@]43C)[C@@H]2CC[C@]12O[C@@H]1C[C@H](C)CN[C@H]1[C@H]2C [Peimisine],10.9%
16,C=C1[C@H](OC(C)=O)[C@@H](OC(=O)c2ccccc2)[C@@H](OC(C)=O)C(C)(C)[C@H]2O[C@](O)([C@H](C)C2=O)[C@@]2(OC(C)=O)C[C@H](C)[C@H](OC(C)=O)[C@@H]2[C@H]1OC(C)=O [Kansuinine A],17.5%
17,CC(C)=CCC[C@@](C)(O)[C@H]1CC[C@]2(C)[C@@H]1[C@H](O)C[C@@H]1[C@@]3(C)CC[C@H](O)C(C)(C)[C@@H]3[C@@H](O[C@@H]3O[C@H](CO)[C@@H](O)[C@H](O)[C@H]3O)C[C@]12C [(20R)-Ginsenoside Rh1],30.3%
18,C[S+](CC[C@H](N)C(=O)[O-])C[C@H]1O[C@@H](n2cnc3c(N)ncnc32)[C@H](O)[C@@H]1O (stereo partly drawn) [S-Adenosyl-L-methionine (disulfate tosylate)],18.3%
19,C/C=C/C#CC#C/C=C/c1ccco1 [Atractylodin],10.3%
20,COc1cc2cc(c1Cl)N(C)C(=O)C[C@H](OC(=O)C(C)C)[C@]1(C)O[C@@H]1[C@H](C)[C@@H]1C[C@@](O)(NC(=O)O1)[C@H](OC)/C=C/C=C(\C)C2 [Ansamitocin P-3],22.8%
21,CN1[C@@H](CC(=O)c2ccccc2)CCC[C@H]1CC(=O)c1ccccc1 [Lobelanine],19.2%
22,CN1Cc2c(ccc3c2OCO3)[C@@H]2[C@H]1c1cc3c(cc1C[C@@H]2O)OCO3 [Chelidonine],12.4%
23,C[C@H](CCC(=O)O)C[C@H](C)C[C@H](C)C(=O)/C=C(\O)[C@H](C)C[C@H](C)C/C=C/[C@@H](C)[C@@H](O)[C@@H](C)[C@@H](O)C[C@@H]1CC[C@@](C)([C@H]2CC[C@@](C)([C@@H](C)O)O2)O1 [Ionomycin (calcium)],0%
24,CC(C)[C@]12CC(=O)[C@H](C)[C@H]1C2 [α-Thujone],13.6%
25,O=C1C([C@@H]2O[C@H](CO)[C@@H](O)[C@H](O)[C@H]2O)=C(O)/C(=C(O)/C=C/c2ccc(O)cc2)C(=O)C1(O)[C@@H]1O[C@H](CO)[C@@H](O)[C@H](O)[C@H]1O (stereo partly shown) [Hydroxysafflor yellow A],0%

# Ordered by molar mass (ascending): some entries from above.
row,SMILES,229E Inhibition rate
12,N#CCc1ccc(O)cc1 [4-Hydroxybenzyl cyanide],7.1
4,C/C(=C\c1csc(C)n1)[C@@H]1C[C@@H]2O[C@@H]2CCC[C@H](C)[C@H](O)[C@@H](C)C(=O)C(C)(C)[C@@H](O)CC(=O)O1 [Epothilone A],33.8%
20,COc1cc2cc(c1Cl)N(C)C(=O)C[C@H](OC(=O)C(C)C)[C@]1(C)O[C@@H]1[C@H](C)[C@@H]1C[C@@](O)(NC(=O)O1)[C@H](OC)/C=C/C=C(\C)C2 [Ansamitocin P-3],22.8%
